From paper PMC6488577
No constants are given. Whether binding was seen depends on the method and setting. In cells and extracts the contact can be indirect. These calls come from enrichment with a bait or labelling near it, and not all partners need be listed. For part of these data: Where a sequence is shown, tags or fusion partners need not be part of it.

The chains behind the UniProt entries cited, without tags or fusion partners. Residues count along the entry.
UniProt Q9H1A3, residues 19-318: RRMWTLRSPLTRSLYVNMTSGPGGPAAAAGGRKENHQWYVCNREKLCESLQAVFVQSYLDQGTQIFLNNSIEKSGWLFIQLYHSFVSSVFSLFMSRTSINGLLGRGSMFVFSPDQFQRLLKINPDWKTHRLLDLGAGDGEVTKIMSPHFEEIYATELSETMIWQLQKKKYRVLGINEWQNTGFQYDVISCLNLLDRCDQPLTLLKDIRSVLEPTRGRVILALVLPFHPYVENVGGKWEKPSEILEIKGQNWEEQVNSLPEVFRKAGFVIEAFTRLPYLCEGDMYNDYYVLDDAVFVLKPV
UniProt P27824, residues 21-592: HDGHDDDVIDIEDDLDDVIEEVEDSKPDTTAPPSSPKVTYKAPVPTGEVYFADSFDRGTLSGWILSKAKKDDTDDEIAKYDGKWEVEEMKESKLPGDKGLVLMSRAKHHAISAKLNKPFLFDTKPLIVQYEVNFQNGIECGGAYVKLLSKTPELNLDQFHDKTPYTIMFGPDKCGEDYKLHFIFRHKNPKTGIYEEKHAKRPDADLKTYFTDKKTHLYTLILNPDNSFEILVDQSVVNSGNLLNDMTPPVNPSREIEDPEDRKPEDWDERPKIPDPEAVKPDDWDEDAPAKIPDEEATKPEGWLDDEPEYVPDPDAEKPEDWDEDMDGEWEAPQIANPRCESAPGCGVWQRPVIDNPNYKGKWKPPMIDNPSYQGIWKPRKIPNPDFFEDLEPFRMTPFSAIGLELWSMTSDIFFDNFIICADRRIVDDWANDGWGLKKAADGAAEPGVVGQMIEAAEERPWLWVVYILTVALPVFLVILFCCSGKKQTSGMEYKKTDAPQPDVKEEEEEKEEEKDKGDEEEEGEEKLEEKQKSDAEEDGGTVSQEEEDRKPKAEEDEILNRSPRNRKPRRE
UniProt P13674, residues 18-534: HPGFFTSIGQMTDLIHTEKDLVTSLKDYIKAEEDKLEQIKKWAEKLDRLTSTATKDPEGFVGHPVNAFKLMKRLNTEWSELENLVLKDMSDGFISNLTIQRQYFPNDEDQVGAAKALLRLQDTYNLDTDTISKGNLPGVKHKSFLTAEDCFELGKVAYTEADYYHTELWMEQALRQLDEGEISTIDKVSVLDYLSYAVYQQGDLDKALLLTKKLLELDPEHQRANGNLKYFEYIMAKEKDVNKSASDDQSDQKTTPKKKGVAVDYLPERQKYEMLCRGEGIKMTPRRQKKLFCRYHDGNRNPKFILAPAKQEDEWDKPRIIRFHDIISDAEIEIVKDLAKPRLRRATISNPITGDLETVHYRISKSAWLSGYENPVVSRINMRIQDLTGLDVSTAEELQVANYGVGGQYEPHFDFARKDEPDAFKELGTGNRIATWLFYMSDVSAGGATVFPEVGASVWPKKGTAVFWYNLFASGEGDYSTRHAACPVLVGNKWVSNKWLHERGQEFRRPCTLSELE

Experiments:
Assay in all cases: affinity purification with mass spectrometry; GFP fusion captured on GFP nanobody sepharose beads (Chromotek) from 3 mg whole cell extract in RIPA buffer (150 mM NaCl, 50 mM Tris-HCl pH 8.0) with 50 ug/ml ethidium bromide, 1.5 h 4 C; washes with 300 mM NaCl; triplicate; label-free quantification against GFP control, log2 FC > 8, FDR < 0.05
GFP-METTL9 (human) = GFP-METTL9 (human) (UniProt Q9H1A3)
GFP-METTL8 (human) = molecular target: T1, GFP-METTL8 (human) (UniProt Q9H825)
T1 sequence: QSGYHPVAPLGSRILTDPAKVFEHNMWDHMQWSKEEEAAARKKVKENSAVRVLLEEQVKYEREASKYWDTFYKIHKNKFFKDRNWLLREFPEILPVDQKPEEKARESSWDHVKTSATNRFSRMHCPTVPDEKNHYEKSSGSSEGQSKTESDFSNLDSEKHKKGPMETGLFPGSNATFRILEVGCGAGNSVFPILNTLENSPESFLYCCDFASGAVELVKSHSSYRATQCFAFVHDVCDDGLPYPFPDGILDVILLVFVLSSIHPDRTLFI

GFP-METTL7B (human) = molecular target: GFP-METTL7B (human)

Molecule: Calnexin precursor (CANX) (from UniProt P27824 21-592)
- binding (GFP-METTL9 (human)): binds

Molecule: prolyl 4-Hydroxylase Subunit Alpha 1 (P4HA1) (from UniProt P13674 18-534) (enzyme)
- binding (GFP-METTL8 (human)): binds

B1: transmembrane protein TMEM126A (protein, UniProt Q9H061 1-195)
chain: MENHKSNNKENITIVDISRKINQLPEAERNLLENGSVYVGLNAALCGLIANSLFRRILNVTKARIAAGLPMAGIPFLTTDLTYRCFVSFPLNTGDLDCETCTITRSGLTGLVIGGLYPVFLAIPVNGGLAARYQSALLPHKGNILSYWIRTSKPVFRKMLFPILLQTMFSAYLGSEQYKLLIKALQLSEPGKEIH
- binding (GFP-METTL7B (human)): binds
